At least one structure is not confirmed: it was looked up by name or label, or the drawing left a doubt.
Legend:
[1] = Days to failure of polypropylene in oven at 140° C.; details: 0.30 in polypropylene
[2] = Oxygen absorption (time to absorb one percent oxygen); details: 1.0 part antioxidant in SBR-1006

Cc1cc(Cc2cc(C)cc(C(C)(C)C)c2OC(=O)CCSCCC(=O)Oc2c(Cc3cc(C)cc(C(C)(C)C)c3O)cc(C)cc2C(C)(C)C)c(O)c(C(C)(C)C)c1 [Example 9, bis[2-(2-hydroxy-3-tert.butyl-5-methylbenzyl)-4-methyl-6-tert.butylphenyl]thiodipropionate]
Days to Failure: Craze [1]: 59 days | Days to Failure: Destruction [1]: 70 days | Hours to Absorb 1% O2 [2]: 652 h

Cc1ccc(OC(=O)CCSCCC(=O)Oc2ccc(C)cc2Cc2cc(C(C)(C)C)c(O)c(C(C)(C)C)c2)c(Cc2cc(C(C)(C)C)c(O)c(C(C)(C)C)c2)c1 [Example 11, bis[2-(3,5-di-tert.butyl-4-hydroxybenzyl)-4-methylphenyl]thiodipropionate]
Days to Failure: Craze [1]: 106 days | Days to Failure: Destruction [1]: 117 days | Hours to Absorb 1% O2 [2]: 559 h

— patent US4414408A, “Phenolic antioxidants” (The Goodyear Tire & Rubber Company, priority 1982, dated 1983)
